Results reported in the supplement of paper PMC12067093, “Discovery and optimisation of a covalent ligand for TRIM25 and its application to targeted protein ubiquitination” (Chemical Science, 2025).
Some of the results follow.

Sequences of proteins named here, by UniProt entry; tags and fusion partners are left off. A change or cut given only in a name is not applied to a line headed by its entry.
UniProt Q9BZE9, whole entry, looked up: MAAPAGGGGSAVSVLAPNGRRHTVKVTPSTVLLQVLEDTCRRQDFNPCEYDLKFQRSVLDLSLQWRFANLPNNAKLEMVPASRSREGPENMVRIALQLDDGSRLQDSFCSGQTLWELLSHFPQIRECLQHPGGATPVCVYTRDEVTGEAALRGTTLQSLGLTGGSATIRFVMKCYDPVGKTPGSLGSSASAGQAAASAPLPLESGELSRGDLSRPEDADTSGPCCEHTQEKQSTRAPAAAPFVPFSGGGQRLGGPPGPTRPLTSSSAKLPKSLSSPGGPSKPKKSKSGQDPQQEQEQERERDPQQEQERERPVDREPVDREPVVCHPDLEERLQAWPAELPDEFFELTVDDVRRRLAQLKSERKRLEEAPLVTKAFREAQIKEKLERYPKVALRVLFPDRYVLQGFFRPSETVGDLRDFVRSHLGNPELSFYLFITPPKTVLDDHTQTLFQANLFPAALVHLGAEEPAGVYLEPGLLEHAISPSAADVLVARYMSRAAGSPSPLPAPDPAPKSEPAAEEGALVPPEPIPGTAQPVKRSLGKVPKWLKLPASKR
UniProt P31939: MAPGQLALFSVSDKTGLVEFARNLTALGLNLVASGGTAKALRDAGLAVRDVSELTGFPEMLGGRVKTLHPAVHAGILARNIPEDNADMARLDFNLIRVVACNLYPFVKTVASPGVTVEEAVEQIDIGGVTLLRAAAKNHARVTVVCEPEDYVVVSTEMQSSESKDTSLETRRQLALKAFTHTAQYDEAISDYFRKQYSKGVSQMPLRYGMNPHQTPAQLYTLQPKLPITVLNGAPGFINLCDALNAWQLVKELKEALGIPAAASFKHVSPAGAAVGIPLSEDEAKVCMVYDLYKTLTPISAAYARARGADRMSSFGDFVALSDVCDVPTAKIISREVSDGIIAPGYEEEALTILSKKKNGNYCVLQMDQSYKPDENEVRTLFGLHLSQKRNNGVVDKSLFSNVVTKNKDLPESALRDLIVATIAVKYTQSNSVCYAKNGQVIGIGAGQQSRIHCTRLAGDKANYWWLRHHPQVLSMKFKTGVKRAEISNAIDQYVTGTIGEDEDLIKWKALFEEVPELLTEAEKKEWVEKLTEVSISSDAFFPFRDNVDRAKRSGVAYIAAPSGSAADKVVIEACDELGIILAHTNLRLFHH
UniProt Q9Y487, whole entry, looked up: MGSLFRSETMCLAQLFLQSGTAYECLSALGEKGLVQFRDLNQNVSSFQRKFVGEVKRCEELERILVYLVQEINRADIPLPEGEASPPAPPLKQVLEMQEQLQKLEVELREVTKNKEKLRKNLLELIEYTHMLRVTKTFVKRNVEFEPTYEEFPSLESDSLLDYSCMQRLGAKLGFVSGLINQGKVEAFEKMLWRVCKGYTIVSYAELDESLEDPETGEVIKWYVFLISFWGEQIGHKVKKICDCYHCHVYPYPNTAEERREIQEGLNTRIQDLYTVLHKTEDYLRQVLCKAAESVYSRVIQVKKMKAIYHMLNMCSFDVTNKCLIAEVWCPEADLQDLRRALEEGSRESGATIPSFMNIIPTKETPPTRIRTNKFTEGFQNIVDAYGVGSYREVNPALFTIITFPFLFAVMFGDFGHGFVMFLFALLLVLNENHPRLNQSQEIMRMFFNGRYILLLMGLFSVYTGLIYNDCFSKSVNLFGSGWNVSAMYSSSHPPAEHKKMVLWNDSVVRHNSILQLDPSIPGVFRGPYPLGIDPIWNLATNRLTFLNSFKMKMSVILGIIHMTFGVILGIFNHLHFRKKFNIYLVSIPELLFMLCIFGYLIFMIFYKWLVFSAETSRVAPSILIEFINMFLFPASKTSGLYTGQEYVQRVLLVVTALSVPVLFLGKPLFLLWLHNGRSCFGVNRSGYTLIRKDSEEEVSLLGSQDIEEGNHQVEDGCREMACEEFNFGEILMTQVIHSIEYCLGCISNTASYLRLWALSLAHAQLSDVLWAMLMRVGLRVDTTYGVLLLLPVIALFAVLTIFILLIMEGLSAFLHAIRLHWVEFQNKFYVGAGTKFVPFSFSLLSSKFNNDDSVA
UniProt P15336: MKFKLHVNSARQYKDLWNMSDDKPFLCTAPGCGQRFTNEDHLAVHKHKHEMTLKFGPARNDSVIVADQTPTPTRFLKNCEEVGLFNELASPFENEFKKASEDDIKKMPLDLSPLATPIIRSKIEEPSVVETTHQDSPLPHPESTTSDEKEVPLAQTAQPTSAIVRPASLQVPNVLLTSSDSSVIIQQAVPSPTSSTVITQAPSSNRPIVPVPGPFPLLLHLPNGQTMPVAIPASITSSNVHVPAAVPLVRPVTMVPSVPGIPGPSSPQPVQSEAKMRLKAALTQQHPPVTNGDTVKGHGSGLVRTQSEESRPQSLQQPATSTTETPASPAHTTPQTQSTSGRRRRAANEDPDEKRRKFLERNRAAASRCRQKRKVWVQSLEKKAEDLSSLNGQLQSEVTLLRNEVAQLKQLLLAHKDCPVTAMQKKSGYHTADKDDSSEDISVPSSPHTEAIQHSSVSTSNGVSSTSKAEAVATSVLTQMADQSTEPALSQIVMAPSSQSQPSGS
UniProt P38606, whole entry, looked up: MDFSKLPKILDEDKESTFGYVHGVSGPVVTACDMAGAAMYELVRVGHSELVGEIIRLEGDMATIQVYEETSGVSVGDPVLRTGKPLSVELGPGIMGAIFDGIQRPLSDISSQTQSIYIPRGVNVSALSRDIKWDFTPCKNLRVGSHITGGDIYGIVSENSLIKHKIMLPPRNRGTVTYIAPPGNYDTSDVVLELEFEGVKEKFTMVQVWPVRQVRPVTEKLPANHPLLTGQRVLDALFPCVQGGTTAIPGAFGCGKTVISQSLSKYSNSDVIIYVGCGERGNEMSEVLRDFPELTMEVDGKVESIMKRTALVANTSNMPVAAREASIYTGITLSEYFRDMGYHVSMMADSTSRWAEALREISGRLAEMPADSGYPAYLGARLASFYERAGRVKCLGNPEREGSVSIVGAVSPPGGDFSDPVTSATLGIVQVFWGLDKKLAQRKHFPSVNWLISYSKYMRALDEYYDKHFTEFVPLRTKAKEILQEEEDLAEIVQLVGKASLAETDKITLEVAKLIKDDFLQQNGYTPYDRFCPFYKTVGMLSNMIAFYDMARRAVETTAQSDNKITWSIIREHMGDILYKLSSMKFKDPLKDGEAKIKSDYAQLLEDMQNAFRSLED
UniProt Q9Y4P1: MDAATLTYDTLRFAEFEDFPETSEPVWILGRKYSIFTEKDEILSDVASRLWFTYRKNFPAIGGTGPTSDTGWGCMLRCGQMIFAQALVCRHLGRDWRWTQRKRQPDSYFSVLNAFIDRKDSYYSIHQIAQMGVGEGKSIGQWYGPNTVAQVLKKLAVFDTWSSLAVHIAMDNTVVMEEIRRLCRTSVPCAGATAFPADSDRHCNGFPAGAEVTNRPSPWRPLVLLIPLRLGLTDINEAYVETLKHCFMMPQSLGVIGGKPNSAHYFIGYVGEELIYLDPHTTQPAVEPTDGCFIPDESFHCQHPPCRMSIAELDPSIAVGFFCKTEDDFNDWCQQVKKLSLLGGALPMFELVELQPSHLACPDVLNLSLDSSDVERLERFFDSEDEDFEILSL
UniProt O75348, whole entry, looked up: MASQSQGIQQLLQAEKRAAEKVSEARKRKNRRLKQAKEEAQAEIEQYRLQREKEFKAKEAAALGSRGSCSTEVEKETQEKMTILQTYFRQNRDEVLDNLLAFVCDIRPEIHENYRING
UniProt O95671: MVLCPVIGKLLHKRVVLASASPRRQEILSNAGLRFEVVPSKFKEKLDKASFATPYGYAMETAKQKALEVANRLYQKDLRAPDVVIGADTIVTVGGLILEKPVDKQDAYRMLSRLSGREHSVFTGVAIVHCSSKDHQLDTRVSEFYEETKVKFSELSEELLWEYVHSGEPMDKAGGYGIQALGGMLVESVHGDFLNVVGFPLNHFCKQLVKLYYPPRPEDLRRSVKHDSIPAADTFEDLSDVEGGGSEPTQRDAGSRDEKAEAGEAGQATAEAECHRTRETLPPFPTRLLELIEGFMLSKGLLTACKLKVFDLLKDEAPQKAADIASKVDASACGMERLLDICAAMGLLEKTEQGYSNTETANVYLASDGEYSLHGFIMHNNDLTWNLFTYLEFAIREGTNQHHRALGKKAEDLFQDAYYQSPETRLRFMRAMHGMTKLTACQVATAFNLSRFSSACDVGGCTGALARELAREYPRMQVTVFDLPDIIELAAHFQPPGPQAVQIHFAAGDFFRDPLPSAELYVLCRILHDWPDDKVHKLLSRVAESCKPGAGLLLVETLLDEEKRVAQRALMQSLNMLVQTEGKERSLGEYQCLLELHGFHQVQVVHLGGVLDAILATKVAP
UniProt Q9ULH1: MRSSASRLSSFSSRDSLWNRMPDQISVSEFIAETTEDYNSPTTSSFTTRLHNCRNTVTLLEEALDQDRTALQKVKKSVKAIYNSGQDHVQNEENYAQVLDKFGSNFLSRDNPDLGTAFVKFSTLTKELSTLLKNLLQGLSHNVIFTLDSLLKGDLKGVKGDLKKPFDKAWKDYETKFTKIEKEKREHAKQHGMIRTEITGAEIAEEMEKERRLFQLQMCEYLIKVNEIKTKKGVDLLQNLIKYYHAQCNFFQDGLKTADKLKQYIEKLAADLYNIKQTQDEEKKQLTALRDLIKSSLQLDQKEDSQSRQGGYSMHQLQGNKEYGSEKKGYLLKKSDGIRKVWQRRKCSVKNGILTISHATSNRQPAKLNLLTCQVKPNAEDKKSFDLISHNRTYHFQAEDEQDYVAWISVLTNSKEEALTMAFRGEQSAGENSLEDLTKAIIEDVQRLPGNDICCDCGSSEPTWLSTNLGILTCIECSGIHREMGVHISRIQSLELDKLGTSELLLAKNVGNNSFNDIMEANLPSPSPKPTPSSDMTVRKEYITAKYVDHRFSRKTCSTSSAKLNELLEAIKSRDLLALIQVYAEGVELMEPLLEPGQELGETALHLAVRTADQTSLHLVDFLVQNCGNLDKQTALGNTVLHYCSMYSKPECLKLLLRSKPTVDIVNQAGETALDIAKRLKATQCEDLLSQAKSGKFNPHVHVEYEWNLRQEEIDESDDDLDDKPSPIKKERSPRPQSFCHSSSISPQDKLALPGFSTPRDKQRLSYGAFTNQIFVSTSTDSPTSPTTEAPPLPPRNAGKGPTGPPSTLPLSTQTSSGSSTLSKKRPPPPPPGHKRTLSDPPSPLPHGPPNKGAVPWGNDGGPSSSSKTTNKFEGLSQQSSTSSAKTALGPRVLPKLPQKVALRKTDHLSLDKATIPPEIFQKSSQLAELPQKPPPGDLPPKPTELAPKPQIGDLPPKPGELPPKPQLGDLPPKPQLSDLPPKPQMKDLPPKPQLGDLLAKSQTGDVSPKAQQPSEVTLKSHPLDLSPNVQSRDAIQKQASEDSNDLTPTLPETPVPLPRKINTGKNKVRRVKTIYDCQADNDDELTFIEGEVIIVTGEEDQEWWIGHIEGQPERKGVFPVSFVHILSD
UniProt Q12797: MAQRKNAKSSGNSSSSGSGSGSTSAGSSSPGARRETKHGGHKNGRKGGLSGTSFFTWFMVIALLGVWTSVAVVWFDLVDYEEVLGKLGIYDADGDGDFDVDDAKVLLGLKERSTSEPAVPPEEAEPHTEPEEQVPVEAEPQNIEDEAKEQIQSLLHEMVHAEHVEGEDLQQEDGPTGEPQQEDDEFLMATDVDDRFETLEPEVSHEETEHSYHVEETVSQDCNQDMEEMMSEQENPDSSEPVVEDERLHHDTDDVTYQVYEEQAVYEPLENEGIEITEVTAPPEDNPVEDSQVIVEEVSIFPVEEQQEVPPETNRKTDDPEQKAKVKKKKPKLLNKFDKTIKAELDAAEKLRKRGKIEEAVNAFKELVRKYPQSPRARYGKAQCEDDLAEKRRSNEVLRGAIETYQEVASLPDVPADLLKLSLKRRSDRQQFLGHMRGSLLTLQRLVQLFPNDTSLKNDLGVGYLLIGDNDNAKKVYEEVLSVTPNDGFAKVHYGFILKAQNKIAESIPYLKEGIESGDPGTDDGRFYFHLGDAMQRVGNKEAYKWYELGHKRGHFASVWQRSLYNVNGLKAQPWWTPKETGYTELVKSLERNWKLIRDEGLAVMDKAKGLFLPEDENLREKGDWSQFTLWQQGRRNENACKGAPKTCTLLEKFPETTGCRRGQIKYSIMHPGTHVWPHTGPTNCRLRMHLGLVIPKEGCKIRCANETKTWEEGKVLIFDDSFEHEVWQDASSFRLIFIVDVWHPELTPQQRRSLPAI
UniProt P61421, whole entry, looked up: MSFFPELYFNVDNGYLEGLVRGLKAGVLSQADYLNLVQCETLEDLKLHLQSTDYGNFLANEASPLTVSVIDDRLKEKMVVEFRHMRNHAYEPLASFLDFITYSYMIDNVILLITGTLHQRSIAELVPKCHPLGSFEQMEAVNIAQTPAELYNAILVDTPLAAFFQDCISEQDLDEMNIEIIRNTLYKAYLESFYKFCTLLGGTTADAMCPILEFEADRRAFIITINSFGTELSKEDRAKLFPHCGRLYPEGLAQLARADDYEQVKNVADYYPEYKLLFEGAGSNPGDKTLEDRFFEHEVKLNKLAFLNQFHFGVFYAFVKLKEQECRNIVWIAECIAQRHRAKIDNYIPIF
UniProt O00244: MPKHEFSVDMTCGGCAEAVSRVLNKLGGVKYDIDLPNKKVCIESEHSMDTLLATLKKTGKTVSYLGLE

Compound: Cc1cc(ccc1-c1ccccc1)C(=O)N1CCCN(CC1)C(=O)CCl [compound 10]
Assay: probe-labelled cysteine peptide fold change vs DMSO (competition) (log2 fold change); higher = less target engagement (more negative = stronger competition)
Conditions: THP-1, incubation time: 4 h
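Note: competitive profiling in live THP-1 cells: cysteine peptides tagged with an iodoacetamide desthiobiotin (IA-DTB) probe, intensity after compound treatment relative to DMSO-treated cells.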

Target | probe-labelled cysteine peptide fold change (10 µM) | probe-labelled cysteine peptide fold change (50 µM)
ARRB2_P32121_126_LGQHAHPFFFTIPQNLPCSVTLQPGPEDTGK (UniProt P32121) | -0.00989 | -0.017
ASPSCR1_Q9BZE9_40_VTPSTVLLQVLEDTCR (UniProt Q9BZE9) | 0.112 | 0.134
ATP13A1_Q9HD20_723_FVGFIVVSCPLK (UniProt Q9HD20) | -0.202 | 0.197
ATM_Q13315_790_CLSNCTK (UniProt Q13315) | 0.0221 | -0.274
ATIC_P31939_325_MSSFGDFVALSDVCDVPTAK (UniProt P31939) | -0.0848 | 0.0795
ATP6V0A1_Q93050_247_ASLYPCPETPQER (UniProt Q93050) | -0.135 | 0.217
ATIC_P31939_287_VCMVYDLYK (UniProt P31939) | 0.0118 | -0.00423
ATG7_O95352_298_LPEMAFSPDCPK (UniProt O95352) | -0.204 | -0.0664
ASCC3_Q8N3C0_208_FLNEHLQEACTPELKPVEK (UniProt Q8N3C0) | -0.196 | -0.22
ATRX_P46100_605_GADCQEVPQDK (UniProt P46100) | -0.461 | -0.179
ATN1_P54259_851_APVECPSLGPVPHRPPFEPGSAVATVPPYLGPDTPALR (UniProt P54259) | -0.143 | -0.422
ATP6V0A2_Q9Y487_323+330_CLIAEVWCPEADLQDLRR (UniProt Q9Y487) | 0.0292 | -0.302
ATRX_P46100_1026_MEQQYESSSDGTEKLPEREEICHFPK (UniProt P46100) | -0.0121 | -0.627
ATF2_P15336_418_DCPVTAMQK (UniProt P15336) | -0.418 | -0.797
ATP6V1H_Q9UI12_47_VNWQSYLQGQMISAEDCEFIQR (UniProt Q9UI12) | 0.306 | 0.143
ATP2A2_P16615_560_CLALATHDNPLR (UniProt P16615) | 0.0438 | 0.204
ATP6V1A_P38606_277_YSNSDVIIYVGCGER (UniProt P38606) | 0.00767 | 0.0679
ATG4B_Q9Y4P1_333_TEDDFNDWCQQVK (UniProt Q9Y4P1) | -0.122 | -0.037
ATM_Q13315_12_SLVLNDLLICCR (UniProt Q13315) | 0.0972 | -0.269
ATG4B_Q9Y4P1_323_MSIAELDPSIAVGFFCK (UniProt Q9Y4P1) | 0.15 | -0.0742
ATP1B1_P05026_213_YNPNVLPVQCTGK (UniProt P05026) | -0.334 | 0.0834

Target | probe-labelled cysteine peptide fold change (10 µM) | probe-labelled cysteine peptide fold change (50 µM)
ATF7_P17544_61_NCEEVGLFNELASSFEHEFK (UniProt P17544) | 0.194 | 0.0458
ATP6V1G1_O75348_104_QNRDEVLDNLLAFVCDIRPEIHENYR (UniProt O75348) | 0.184 | 0.147
ASMTL_O95671_546_VAESCKPGAGLLLVETLLDEEKR (UniProt O95671) | 0.0133 | -0.396
ASS1_P00966_97_YLLGTSLARPCIAR (UniProt P00966) | -0.131 | -0.067
ATP13A1_Q9HD20_711_EALECSLK (UniProt Q9HD20) | -0.0396 | 0.00247
ASAP1_Q9ULH1_373_LNLLTCQVKPNAEDKK (UniProt Q9ULH1) | 0.118 | -0.248
ATM_Q13315_755_SLMQCAGESITLFK (UniProt Q13315) | 0.223 | 0.194
ASCC3_Q8N3C0_1874_CLPIESNPHSFDSPHTK (UniProt Q8N3C0) | -0.155 | -0.0768
ATP2A2_P16615_635_GTAVAICR (UniProt P16615) | 0.0523 | 0.175
ASPSCR1_Q9BZE9_127+138_ECLQHPGGATPVCVYTR (UniProt Q9BZE9) | -0.0868 | -0.296
ATAD2_Q6PL18_463_GCLFYGPPGTGK (UniProt Q6PL18) | -0.0361 | 0.111
ATP6V1A_P38606_240+254_VLDALFPCVQGGTTAIPGAFGCGK (UniProt P38606) | 0.143 | -0.0323
ATP13A1_Q9HD20_648_LGSTDLCYIAAVK (UniProt Q9HD20) | -0.103 | 0.0143
ATP5F1C_P36542_103_GLCGAIHSSIAK (UniProt P36542) | 0.0596 | -0.117
ASPH_Q12797_685_YSIMHPGTHVWPHTGPTNCR (UniProt Q12797) | -0.223 | -0.291
ATPAF1_Q5TC12_321_CAQNQNKT (UniProt Q5TC12) | -0.363 | -0.907
ATM_Q13315_353_ENLIELMADICHQVFNEDTR (UniProt Q13315) | -0.0111 | 0.367
ATP5S_Q99766_134_CHYIEDDCLLR (UniProt Q99766) | 0.0401 | 0.00322
ATL3_Q6DD88_262_NHIHSCFSDVTCFLLPHPGLQVATSPDFDGK (UniProt Q6DD88) | 0.158 | 0.0827
ASAP1_Q9ULH1_373_LNLLTCQVKPNAEDK (UniProt Q9ULH1) | 0.259 | 0.258
ATP6V0D1_P61421_39_AGVLSQADYLNLVQCETLEDLK (UniProt P61421) | 0.0989 | 0.206

Target | probe-labelled cysteine peptide fold change (10 µM) | probe-labelled cysteine peptide fold change (50 µM)
ATP6V0A2_Q9Y487_244_ICDCYHCHVYPYPNTAEER (UniProt Q9Y487) | -0.0298 | 0.367
ASPH_Q12797_660_FPETTGCR (UniProt Q12797) | -0.16 | -0.00818
ATP1B1_P05026_126_DSAQRDDMIFEDCGDVPSEPK (UniProt P05026) | -0.185 | -0.351
ASMTL_O95671_441_LTACQVATAFNLSR (UniProt O95671) | -0.0865 | -0.389
ATP6V1A_P38606_138_WDFTPCK (UniProt P38606) | -1.09 | -3.27
ATOX1_O00244_41_KVCIESEHSMDTLLATLK (UniProt O00244) | 0.317 | -0.11
ARRB2_P32121_141_ACGVDFEIR (UniProt P32121) | -0.176 | -0.298
ATF7IP_Q6VMQ6_955_AADSTSQCGK (UniProt Q6VMQ6) | 0.014 | -0.102
ATAD1_Q8NBU5_229_AQFMSLWDGLDTDHSCQVIVMGATNRPQDLDSAIMR (UniProt Q8NBU5) | 0.117 | 0.088
ATP6V1C1_P21283_225_SSNVLSEDQDSYLCNVTLFR (UniProt P21283) | 0.0607 | 0.257
AR_P10275_602_NDCTIDK (UniProt P10275) | -0.153 | -0.336
ATRX_P46100_1531_CPITTK (UniProt P46100) | -0.402 | -1.05
ATP1A1_P05023_249_NIAFFSTNCVEGTAR (UniProt P05023) | 0.0103 | -0.0548
ASPSCR1_Q9BZE9_127_ECLQHPGGATPVCVYTR (UniProt Q9BZE9) | 0.0894 | 0.0335
ATP5PD_O75947_101_SCAEWVSLSK (UniProt O75947) | -0.646 | -0.432
ATM_Q13315_2092_DWCPELEELHYQAAWR (UniProt Q13315) | -0.0425 | -0.0794
ATRX_P46100_1718_ALVDPGPDFVVCDEGHILK (UniProt P46100) | 0.0511 | 0.122
ATP2B4_P23634_537_TECALLGFVTDLK (UniProt P23634) | -0.201 | -0.0556
ARSA_P15289_493_GEDPALQICCHPGCTPR (UniProt P15289) | 0.183 | 0.265
ATL3_Q6DD88_371_DIYYNNMEEVCGGEK (UniProt Q6DD88) | -0.0162 | 0.0859
ATOX1_O00244_41_VCIESEHSMDTLLATLKK (UniProt O00244) | 0.237 | -0.215

Target | probe-labelled cysteine peptide fold change (10 µM) | probe-labelled cysteine peptide fold change (50 µM)
ATP1A1_P05023_663_ACVVHGSDLK (UniProt P05023) | 0.124 | -0.145
ATP13A1_Q9HD20_18_AAAAAVGNAVPCGARPCGVRPDGQPKPGPQPR (UniProt Q9HD20) | -0.246 | -0.624
ATP1B3_P54709_191_IDCVSK (UniProt P54709) | -0.102 | 0.0857
ASPSCR1_Q9BZE9_325_ERPVDREPVDREPVVCHPDLEER (UniProt Q9BZE9) | -0.485 | 0.00354
ATP6V0D1_P61421_209_FCTLLGGTTADAMCPILEFEADRR (UniProt P61421) | 0.659 | 0.357
ATIC_P31939_363_KNGNYCVLQMDQSYKPDENEVR (UniProt P31939) | -0.0223 | 0.032
ATRX_P46100_1760_IILTGTPLQNNLIEYHCMVNFIK (UniProt P46100) | -0.047 | 0.0522
ATP2A2_P16615_377_MFILDRVEGDTCSLNEFTITGSTYAPIGEVHK (UniProt P16615) | 0.0891 | 0.248
ATP6V0D1_P61421_335_NIVWIAECIAQR (UniProt P61421) | 0.155 | 0.16
ASCC3_Q8N3C0_1283_WLGAEAVCIINFQHLILPER (UniProt Q8N3C0) | 0.196 | 0.705
ASXL2_Q76L83_299_HTFSVLPGDCQQR (UniProt Q76L83) | -0.0705 | -0.476
ATP6V1G1_O75348_104_DEVLDNLLAFVCDIRPEIHENYR (UniProt O75348) | 0.269 | 0.435
ATP11B_Q9Y2G3_422_ECSINGMK (UniProt Q9Y2G3) | -0.1 | -0.176
ATL3_Q6DD88_256_NHIHSCFSDVTCFLLPHPGLQVATSPDFDGK (UniProt Q6DD88) | 0.126 | 0.112
ATF7IP_Q6VMQ6_78_DKEEVNGIEEICFDPEGSK (UniProt Q6VMQ6) | -0.296 | 0.0547
ATP2C1_P98194_411_IVEAGCVCNDAVIR (UniProt P98194) | 0.122 | 0.0199
ATP2A3_Q93084_581_KEDMELDDCSK (UniProt Q93084) | -0.221 | -0.107
ATP13A1_Q9HD20_667_GAPETLHSMFSQCPPDYHHIHTEISR (UniProt Q9HD20) | -0.00203 | 0.055
